From publication PMC10435442, “Developing multitarget coumarin based anti-breast cancer agents: synthesis and molecular modeling study” (Scientific Reports, 2023)

What was measured:
MCF-7 = assay: MTT cytotoxicity assay, MCF-7; conditions: selectivity index MCF-10A versus MCF7
MDA-MB-231 = assay: MTT cytotoxicity assay, MDA-MB-231; conditions: selectivity index MCF-10A versus MDA

O=C(OCc1cc(=O)oc2cc(O)ccc12)c1ccccc1 [Compound 2, (7-Hydroxy-2-oxo-2H-chromen-4-yl)methyl benzoate]
SI for MCF-10A (MCF7) (MCF-7): 30.8
SI for MCF-10A (MDA) (MDA-MB-231): 3.5

CC(=O)Oc1ccc2c(COC(=O)c3ccccc3)cc(=O)oc2c1 [Compound 13, (7-Acetoxy-2-oxo-2H-chromen-4-yl)methyl benzoate]
SI for MCF-10A (MCF7) (MCF-7): 4.4
SI for MCF-10A (MDA) (MDA-MB-231): 15.9

CC(=O)Oc1ccc2c(COC(=O)c3ccc(Cl)cc3)cc(=O)oc2c1 [Compound 14, (7-Acetoxy-2-oxo-2H-chromen-4-yl)methyl 4-chlorobenzoate]
SI for MCF-10A (MCF7) (MCF-7): 0.9

COc1ccccc1C(=O)OCc1cc(=O)oc2cc(OC(C)=O)ccc12 [Compound 15, (7-Acetoxy-2-oxo-2H-chromen-4-yl)methyl 2-methoxybenzoate]
SI for MCF-10A (MCF7) (MCF-7): 18.2
SI for MCF-10A (MDA) (MDA-MB-231): 4.1

COc1cccc2c1C(=O)c1c(O)c3c(c(O)c1C2=O)C[C@@](O)(C(=O)CO)C[C@@H]3O[C@H]1C[C@H](N)[C@H](O)[C@H](C)O1 [Doxorubicin, reference compound]
SI for MCF-10A (MCF7) (MCF-7): 4.1
SI for MCF-10A (MDA) (MDA-MB-231): 3.1
